These results are taken from the supplement of paper PMC6411743.

The chains behind the UniProt entries cited, without tags or fusion partners. Where a name states a change or a piece, a line headed by the entry shows the natural chain unless it says otherwise.
UniProt Q9BR61: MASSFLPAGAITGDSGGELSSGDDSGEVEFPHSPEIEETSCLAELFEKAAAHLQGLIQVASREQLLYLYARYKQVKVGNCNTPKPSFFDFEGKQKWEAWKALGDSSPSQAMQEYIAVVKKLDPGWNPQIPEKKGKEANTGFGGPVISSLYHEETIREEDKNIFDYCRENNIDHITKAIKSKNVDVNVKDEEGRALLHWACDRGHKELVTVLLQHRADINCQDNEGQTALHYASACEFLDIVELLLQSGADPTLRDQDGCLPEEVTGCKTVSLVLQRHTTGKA
UniProt Q9BV23: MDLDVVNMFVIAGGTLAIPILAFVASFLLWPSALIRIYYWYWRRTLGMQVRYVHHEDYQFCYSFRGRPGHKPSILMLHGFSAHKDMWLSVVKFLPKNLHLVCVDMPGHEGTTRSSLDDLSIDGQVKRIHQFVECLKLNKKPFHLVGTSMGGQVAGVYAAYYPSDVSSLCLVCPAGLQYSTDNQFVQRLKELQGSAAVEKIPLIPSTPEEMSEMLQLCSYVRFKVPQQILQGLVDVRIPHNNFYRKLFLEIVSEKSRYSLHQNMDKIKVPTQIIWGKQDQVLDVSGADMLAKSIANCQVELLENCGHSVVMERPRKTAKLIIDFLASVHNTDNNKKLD
UniProt Q9BUK6: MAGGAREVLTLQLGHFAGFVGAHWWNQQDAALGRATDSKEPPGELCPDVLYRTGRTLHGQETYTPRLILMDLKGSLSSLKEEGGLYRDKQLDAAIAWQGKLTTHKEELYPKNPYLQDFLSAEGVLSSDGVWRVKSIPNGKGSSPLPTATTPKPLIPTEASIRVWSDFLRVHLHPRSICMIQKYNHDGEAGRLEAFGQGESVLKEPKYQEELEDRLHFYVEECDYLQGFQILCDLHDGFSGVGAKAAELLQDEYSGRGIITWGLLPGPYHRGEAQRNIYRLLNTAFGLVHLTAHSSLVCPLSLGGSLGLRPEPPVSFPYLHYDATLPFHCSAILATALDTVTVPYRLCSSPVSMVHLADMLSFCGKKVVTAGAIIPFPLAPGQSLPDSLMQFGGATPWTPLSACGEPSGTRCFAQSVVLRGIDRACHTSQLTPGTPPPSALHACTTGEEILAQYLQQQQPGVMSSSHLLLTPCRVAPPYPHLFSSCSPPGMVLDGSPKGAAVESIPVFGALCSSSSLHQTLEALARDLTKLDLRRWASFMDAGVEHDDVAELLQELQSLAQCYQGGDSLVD
UniProt Q9BYT8, whole entry, looked up: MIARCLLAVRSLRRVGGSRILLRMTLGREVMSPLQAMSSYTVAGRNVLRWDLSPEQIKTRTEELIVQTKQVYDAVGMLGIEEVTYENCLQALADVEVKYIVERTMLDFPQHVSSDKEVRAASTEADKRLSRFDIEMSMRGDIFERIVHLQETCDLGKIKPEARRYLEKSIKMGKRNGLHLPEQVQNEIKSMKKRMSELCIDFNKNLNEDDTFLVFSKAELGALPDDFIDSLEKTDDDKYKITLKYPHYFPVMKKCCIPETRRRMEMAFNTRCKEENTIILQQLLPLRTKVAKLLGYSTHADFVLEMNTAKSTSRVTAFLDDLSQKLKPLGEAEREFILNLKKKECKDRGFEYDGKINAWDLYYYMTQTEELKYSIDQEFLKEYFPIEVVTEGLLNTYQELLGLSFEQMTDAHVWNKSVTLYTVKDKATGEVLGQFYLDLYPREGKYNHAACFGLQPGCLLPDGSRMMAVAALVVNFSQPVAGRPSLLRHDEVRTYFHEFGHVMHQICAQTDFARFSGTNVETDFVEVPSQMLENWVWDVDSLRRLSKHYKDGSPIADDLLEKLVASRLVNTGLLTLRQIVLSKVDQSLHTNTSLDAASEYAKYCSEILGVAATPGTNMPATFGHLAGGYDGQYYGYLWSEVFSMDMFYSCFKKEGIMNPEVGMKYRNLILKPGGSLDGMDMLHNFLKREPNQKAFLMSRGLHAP
UniProt Q9BWF3: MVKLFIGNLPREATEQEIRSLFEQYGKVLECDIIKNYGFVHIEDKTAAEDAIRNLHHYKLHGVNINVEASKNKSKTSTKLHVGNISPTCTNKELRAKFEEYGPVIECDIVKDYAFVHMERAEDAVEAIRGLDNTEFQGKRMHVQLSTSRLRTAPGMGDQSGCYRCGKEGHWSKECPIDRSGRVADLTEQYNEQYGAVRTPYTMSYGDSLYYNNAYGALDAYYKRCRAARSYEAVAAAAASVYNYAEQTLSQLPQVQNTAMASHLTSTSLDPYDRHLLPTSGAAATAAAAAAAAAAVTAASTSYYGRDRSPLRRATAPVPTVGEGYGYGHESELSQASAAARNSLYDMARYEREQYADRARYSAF
UniProt Q9BRG1: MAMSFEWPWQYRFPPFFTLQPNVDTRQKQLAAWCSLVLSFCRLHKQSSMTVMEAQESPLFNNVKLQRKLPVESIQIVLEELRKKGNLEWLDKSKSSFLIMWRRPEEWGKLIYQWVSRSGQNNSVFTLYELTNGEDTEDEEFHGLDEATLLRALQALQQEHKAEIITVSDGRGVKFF
UniProt Q99714: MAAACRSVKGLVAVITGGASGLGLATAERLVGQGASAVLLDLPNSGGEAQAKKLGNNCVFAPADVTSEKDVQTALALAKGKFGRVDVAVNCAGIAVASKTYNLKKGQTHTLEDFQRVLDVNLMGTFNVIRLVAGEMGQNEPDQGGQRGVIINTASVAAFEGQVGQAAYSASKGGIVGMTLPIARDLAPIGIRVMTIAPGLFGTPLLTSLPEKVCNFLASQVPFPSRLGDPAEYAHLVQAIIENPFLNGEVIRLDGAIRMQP
UniProt Q9BW19: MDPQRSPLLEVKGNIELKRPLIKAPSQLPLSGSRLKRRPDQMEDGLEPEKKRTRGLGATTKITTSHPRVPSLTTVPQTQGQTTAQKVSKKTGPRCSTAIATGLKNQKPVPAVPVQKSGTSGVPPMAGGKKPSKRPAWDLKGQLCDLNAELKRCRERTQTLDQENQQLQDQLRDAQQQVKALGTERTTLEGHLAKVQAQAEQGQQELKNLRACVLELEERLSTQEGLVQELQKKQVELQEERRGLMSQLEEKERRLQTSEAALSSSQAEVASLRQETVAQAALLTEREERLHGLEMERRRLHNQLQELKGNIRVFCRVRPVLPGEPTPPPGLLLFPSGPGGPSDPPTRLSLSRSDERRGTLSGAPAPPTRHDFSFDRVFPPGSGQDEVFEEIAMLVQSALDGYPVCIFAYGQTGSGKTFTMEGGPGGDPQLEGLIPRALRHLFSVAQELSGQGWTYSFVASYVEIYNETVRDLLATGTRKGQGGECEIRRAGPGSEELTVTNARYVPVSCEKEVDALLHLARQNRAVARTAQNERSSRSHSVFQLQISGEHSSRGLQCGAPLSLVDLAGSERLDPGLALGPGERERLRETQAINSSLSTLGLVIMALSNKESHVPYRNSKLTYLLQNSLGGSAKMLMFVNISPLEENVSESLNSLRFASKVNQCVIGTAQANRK
UniProt Q9BXI6: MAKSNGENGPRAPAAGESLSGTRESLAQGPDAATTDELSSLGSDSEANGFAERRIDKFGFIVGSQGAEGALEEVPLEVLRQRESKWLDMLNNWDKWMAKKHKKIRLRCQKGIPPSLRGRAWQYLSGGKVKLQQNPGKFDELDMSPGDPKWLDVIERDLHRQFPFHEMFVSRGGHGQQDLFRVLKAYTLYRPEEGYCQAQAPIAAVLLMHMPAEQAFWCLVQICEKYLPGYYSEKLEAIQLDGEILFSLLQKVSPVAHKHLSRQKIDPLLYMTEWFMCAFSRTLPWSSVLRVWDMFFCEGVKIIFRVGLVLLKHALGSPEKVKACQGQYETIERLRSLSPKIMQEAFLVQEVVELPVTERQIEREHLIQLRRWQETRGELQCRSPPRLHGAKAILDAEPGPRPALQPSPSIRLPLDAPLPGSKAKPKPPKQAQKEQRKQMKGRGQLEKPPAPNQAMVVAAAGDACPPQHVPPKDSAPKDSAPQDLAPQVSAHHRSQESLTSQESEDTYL
UniProt Q9BTC0, whole entry: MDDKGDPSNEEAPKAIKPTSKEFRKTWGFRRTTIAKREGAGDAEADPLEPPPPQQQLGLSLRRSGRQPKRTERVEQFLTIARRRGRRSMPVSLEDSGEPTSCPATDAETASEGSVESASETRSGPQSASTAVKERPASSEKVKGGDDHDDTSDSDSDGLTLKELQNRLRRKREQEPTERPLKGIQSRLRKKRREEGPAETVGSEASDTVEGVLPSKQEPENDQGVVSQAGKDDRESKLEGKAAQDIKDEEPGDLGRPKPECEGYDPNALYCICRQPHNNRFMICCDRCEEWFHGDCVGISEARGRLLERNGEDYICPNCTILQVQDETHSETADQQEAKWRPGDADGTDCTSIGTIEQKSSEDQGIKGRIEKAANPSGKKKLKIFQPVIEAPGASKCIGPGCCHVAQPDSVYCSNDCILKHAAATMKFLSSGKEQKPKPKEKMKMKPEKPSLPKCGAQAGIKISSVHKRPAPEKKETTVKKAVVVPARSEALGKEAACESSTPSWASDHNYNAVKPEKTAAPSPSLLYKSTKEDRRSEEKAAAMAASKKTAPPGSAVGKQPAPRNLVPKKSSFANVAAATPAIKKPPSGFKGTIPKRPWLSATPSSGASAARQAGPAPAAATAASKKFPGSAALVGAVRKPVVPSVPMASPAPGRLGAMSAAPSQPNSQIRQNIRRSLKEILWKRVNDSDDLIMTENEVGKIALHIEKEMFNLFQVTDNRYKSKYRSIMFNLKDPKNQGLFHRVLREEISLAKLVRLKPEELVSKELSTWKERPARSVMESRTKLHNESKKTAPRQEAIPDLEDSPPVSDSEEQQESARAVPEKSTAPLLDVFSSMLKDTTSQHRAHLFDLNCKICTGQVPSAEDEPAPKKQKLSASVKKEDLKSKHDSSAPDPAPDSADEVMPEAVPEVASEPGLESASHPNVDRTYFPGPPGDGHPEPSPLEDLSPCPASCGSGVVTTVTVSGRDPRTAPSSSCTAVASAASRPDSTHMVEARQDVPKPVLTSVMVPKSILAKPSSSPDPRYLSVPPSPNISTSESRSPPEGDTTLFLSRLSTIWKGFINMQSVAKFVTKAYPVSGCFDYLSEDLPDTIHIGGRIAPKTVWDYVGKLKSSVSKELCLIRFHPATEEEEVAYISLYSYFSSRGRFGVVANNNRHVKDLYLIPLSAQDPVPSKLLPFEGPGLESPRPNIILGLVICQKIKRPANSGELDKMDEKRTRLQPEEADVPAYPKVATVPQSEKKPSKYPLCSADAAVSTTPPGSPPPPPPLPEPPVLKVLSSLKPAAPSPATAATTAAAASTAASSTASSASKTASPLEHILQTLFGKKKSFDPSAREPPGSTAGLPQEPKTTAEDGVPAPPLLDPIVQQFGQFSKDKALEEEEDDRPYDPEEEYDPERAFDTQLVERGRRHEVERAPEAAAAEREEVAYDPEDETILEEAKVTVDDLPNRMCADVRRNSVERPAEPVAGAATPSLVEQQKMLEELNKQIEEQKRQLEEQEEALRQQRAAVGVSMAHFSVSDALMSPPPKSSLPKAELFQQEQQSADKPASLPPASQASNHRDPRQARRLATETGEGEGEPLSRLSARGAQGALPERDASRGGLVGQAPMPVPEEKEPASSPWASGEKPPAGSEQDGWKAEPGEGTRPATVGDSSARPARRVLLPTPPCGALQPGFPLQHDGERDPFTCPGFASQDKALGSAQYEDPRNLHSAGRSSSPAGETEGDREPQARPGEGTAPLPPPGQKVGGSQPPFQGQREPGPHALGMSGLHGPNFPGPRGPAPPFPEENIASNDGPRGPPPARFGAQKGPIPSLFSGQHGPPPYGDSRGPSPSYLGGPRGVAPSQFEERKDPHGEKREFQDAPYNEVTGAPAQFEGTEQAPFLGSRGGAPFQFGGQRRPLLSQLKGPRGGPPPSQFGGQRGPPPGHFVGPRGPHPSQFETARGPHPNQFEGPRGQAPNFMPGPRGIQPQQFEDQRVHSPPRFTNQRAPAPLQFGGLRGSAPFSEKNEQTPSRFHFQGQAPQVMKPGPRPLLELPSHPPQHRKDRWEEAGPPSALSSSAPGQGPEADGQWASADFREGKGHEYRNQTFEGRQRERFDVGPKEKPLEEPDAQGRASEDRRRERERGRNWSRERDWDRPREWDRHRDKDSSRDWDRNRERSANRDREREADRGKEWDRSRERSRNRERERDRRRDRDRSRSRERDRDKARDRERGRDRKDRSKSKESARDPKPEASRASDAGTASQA
UniProt Q9BTV7: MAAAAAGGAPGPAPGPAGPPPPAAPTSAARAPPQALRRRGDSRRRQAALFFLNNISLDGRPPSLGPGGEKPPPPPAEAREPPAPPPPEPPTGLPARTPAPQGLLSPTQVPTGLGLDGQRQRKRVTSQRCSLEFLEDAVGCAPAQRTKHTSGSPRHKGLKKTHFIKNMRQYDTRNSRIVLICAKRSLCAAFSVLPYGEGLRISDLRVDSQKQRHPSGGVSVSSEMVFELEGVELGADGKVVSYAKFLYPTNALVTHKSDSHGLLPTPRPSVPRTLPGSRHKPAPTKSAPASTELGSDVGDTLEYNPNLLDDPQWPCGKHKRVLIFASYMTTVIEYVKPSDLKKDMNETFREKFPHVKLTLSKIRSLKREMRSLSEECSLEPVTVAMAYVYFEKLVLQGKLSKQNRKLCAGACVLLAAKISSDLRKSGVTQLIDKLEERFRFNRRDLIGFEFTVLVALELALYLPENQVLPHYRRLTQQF

± gives the standard deviation of the averaged measurements. The list shows a part of the results, in another mix than the full data. Most values lie at the level of the controls, where differences are scatter.

Compound in the assay: Nc1ncnc2c1ncn2[C@@H]1O[C@H](COP(=O)(O)OP(=O)(O)NP(=O)(O)O)[C@@H](O)[C@H]1O [adenylyl imidodiphosphate]
In words: NP40-soluble protein abundance relative to vehicle (solubility fold change) (ratio); higher = more soluble protein in presence of AMP-PNP. An outline of the steps: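 Jurkat crude lysate prepared with a Dounce homogeniser was treated at eight concentrations spanning 0.1 to 10 mM, 10 min at room temperature then 3 min at 37 °C. Solubilisation with 0.8% NP40 and benzonase and ultracentrifugation preceded TMT labelling of the supernatant for LC-MS/MS. Fold change against the detergent-processed vehicle was determined per replicate from vsn-normalised intensities, across three independent experiments.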

As to UniProt Q96RL7 and related entries, the NP40-soluble protein abundance came out at 1.02 ± 0.044 (concentration: 0.1mM) and 0.987 ± 0.088 (concentration: 0.5mM).

Regarding ACBD6 (UniProt Q9BR61), the NP40-soluble protein abundance by setting is: (concentration: 0.1mM) 0.987 ± 0.033; (concentration: 0.5mM) 0.991 ± 0.052.

On to UniProt Q9BZ67-2, for which the NP40-soluble protein abundance (concentration: 0.1mM) worked out at 0.995 ± 0.02 and the NP40-soluble protein abundance (concentration: 0.5mM) stood at 0.999 ± 0.028.

With UniProt Q9BW83 and related entries, the NP40-soluble protein abundance runs as follows: (concentration: 0.1mM) 1.008 ± 0.0035; (concentration: 0.5mM) 0.999 ± 0.05.

In the case of ABHD6 (UniProt Q9BV23), the NP40-soluble protein abundance is, setting by setting: (concentration: 0.1mM) 1.02 ± 0.0085; (concentration: 0.5mM) 1 ± 0.014.

For UniProt Q9BUK6 and related entries, the NP40-soluble protein abundance (concentration: 0.1mM) worked out at 0.974 ± 0.048 and the NP40-soluble protein abundance (concentration: 0.5mM) stood at 0.996 ± 0.046.

As for UniProt Q9BV81, the NP40-soluble protein abundance (concentration: 0.1mM) stood at 0.99 ± 0.036 and the NP40-soluble protein abundance (concentration: 0.5mM) was determined as 0.965 ± 0.019.

For UniProt Q9BZ95 and related entries, the NP40-soluble protein abundance stood at 1.04 ± 0.03 (concentration: 0.1mM) and 1.02 ± 0.05 (concentration: 0.5mM).

Consider NLN (UniProt Q9BYT8), for which the NP40-soluble protein abundance runs as follows: (concentration: 0.1mM) 1.03 ± 0.067; (concentration: 0.5mM) 0.985 ± 0.094.

As to UniProt Q9BRX9, the NP40-soluble protein abundance (concentration: 0.1mM) came out at 0.988 ± 0.011 and the NP40-soluble protein abundance (concentration: 0.5mM) was determined as 0.9663 ± 0.0075.

For the target UniProt Q9BSH4, the NP40-soluble protein abundance reads like this: (concentration: 0.1mM) 0.985 ± 0.012; (concentration: 0.5mM) 0.988 ± 0.027.

UniProt Q9BWF3 and related entries: the NP40-soluble protein abundance (concentration: 0.1mM) was 1 ± 0.026 and the NP40-soluble protein abundance (concentration: 0.5mM) stood at 1.03 ± 0.076.

Consider UniProt Q9BXJ9, for which the NP40-soluble protein abundance is, setting by setting: (concentration: 0.1mM) 1.02 ± 0.027; (concentration: 0.5mM) 1 ± 0.032.

In the case of UniProt Q96S55 and related entries, the NP40-soluble protein abundance runs as follows: (concentration: 0.1mM) 1.04 ± 0.055; (concentration: 0.5mM) 0.998 ± 0.051.

UniProt Q9BRG1 and related entries: the NP40-soluble protein abundance reads like this: (concentration: 0.1mM) 1.06 ± 0.011; (concentration: 0.5mM) 1.05 ± 0.018.

For the target HSD17B10 (UniProt Q99714), the NP40-soluble protein abundance by setting is: (concentration: 0.1mM) 1 ± 0.027; (concentration: 0.5mM) 1.04 ± 0.041.

Consider KIFC1 (UniProt Q9BW19), for which the NP40-soluble protein abundance amounted to 0.991 ± 0.022 (concentration: 0.1mM) and 1.03 ± 0.058 (concentration: 0.5mM).

In the case of UniProt Q9BXI6 and related entries, the NP40-soluble protein abundance reads like this: (concentration: 0.1mM) 0.976 ± 0.015; (concentration: 0.5mM) 0.9707 ± 0.0038.

As to DIDO1 (UniProt Q9BTC0), the NP40-soluble protein abundance came out at 1.03 ± 0.037 (concentration: 0.1mM) and 1.03 ± 0.026 (concentration: 0.5mM).

Consider SIN3A (UniProt Q96ST3), for which the NP40-soluble protein abundance (concentration: 0.1mM) worked out at 1 ± 0.016 and the NP40-soluble protein abundance (concentration: 0.5mM) was 0.975 ± 0.036.

On to TMEM43 (UniProt Q9BTV4), for which the NP40-soluble protein abundance reads like this: (concentration: 0.1mM) 0.971 ± 0.032; (concentration: 0.5mM) 0.934 ± 0.14.

On to DPH2 (UniProt Q9BQC3), for which the NP40-soluble protein abundance was determined as 1.03 ± 0.019 (concentration: 0.1mM) and 1.01 ± 0.036 (concentration: 0.5mM).

In the case of CABLES2 (UniProt Q9BTV7), the NP40-soluble protein abundance is, setting by setting: (concentration: 0.1mM) 0.998 ± 0.014; (concentration: 0.5mM) 1.001 ± 0.0073.
